# Measurements reported in paper PMC7848174.
# Results are given in words; binding and its absence hold for the method and conditions named. Binding seen in cells or lysates may run through a third protein. Some binding calls cover weakened binding; strength is not graded here.
# B1: high-molecular mass rhoptry protein 2 (PfRhopH2) (protein, UniProt C0H571 20-1378)
# chain: LELNEKVSIKYGAEQGVGSADSNTKLCSDILKYLYMDEYLSEGDKATFEKKCHNVIGNIRNTFSNKNTIKEGNEFLMSILHMKSLYGNNNNNNAGSESDVTLKSLYLSLKGSQNTEGESEVPSDDEINKTIMNFVKFNKYLLDNSNDIKKVHDFLVLTSQSNENLLPNKEKLFEQIVDQIKYFDEYFFASGGKIKVKKGYLKYNFLDIYKQPVCSAYLHLCSRYYESVSIYIRLKKVFNGIPAFLDKNCRKVKGEEFKKLMDMELKHNHIVERFDKYIISDDLYYVNMKVFDLKNVDKIQVSKIDDINNLNIYEHKETMHLSAKNLSRYIDIKKELNDEKAYKQLMSAIRKYVTTLTKADSDITYFVKQLDDEEIERFLIDLNFFLYNGFLRITEDKHLINADDVSPSYINLYRSNNIVALYILKTQYEENKLSEYRAHKFYRRKRVSNITNDMIKKDFTQTNALTNLPNLDNKKTTEYYLKEYENFVENFQPDLHDIMKLQLFFTMAFKDCNVNQNFTETSKKLWFDLLYAYDKFGWFYIHPNEVINSINKTDFVRHVLVSRNFLLKNNDQLTFLETQVAKIVEIINLSLEVDKSPDSLDFSIPMNFFNHKNGYHVMNDDKLKLLTSYEYIDSIANNYFFLSEYKNDVFRTGNNFKLYFNLPNIYSLAYQLFNELAININVITNVPLKKYLKYNASYAYFTLMNMIGKNHDIYSKGSRFVYASYILGLVFFIESHIDIARLKPKDFFFMKQSLPIIDHVYHKDLKTLKKNCTLLTDFMKINKNSQNYSLTHTEEMIKILGLLTVTLWAKEGKKSVYYDDDVSLYRKLMVSCVFNGGETIQEKLANNIEKSCDISQYGIKSKNLKDMIDINLSIHKWNPAEIEKLAYSFVLSCKMQKLMYKPMNVEKLPLEDYYKLSLAPDMVKTYHCYKLGKQAAELLESIILKKKFVRFRVTDAIDVYDFFYIKKVLSSRIKKEYNEFLQDKRAFEKKELETILNNSPFSEEQTMKLINSYECHWFTSYENFRILWMHASSNLGTGTYLKNFFSELWQNIRFLFKSKLKIRDMEYFSGDISQMNLLDYYSPMVHSESHCQEKMQVLFITLRDSKEENRSEIAQKVKSAYYQCKLDYYKNHHSDFIHRIHPNDFLNNKVYVLKQPYYLMSNVPLNNPKKVSRLFVTEGTLEYLLLDKINIPECFGPCTKLHFNKVVIKESKQRIYDMTINNALVPEIQPYNRRKYMTIYINEAYIKNIVSDALTSEEIKRHDIQKGNIKICMGKSTYLTEPILTEEHFNLTHKPVYDFSSVKHNLKVFHMKNEHLVSEDPNDDCFINYPLATINLDISDPYKEISEDLIKNLYILKSS
# Biological target: T1, high-molecular mass rhoptry protein 3 (PfRhopH3) (P. falciparum (endogenous in NF54 schizonts)) (UniProt Q8I395)
# T1 sequence: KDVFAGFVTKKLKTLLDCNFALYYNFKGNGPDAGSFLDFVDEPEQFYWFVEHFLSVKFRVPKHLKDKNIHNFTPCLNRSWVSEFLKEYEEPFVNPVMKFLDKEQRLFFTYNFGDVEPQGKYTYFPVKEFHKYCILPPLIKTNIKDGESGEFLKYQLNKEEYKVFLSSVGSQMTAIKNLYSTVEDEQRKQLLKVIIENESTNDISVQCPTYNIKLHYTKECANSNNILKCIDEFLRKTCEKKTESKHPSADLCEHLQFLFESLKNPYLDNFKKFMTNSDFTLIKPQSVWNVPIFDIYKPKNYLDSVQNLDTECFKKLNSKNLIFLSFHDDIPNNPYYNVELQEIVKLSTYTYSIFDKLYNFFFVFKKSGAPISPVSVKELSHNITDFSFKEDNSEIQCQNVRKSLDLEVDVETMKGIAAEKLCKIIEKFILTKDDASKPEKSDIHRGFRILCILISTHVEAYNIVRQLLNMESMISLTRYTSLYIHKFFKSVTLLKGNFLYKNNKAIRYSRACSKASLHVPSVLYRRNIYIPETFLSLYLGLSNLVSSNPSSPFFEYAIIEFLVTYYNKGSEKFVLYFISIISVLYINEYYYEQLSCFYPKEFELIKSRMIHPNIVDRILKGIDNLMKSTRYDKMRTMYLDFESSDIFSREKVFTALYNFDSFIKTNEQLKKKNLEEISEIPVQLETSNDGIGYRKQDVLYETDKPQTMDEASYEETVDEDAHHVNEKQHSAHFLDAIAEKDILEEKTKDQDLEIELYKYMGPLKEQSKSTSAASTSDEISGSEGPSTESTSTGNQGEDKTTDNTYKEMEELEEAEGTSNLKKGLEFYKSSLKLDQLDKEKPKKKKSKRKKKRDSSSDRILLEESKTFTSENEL
# Assay: co-IP; eluates of the monoclonal antibody-conjugated affinity columns (schizont lysate) resolved by SDS-PAGE and probed by western blot with the other monoclonal antibody of the pair
binder,measurement,value
B1,binding,binds
